This passage reports binding results from paper doi:10.1101/639948.

Amino acid sequences for entries named in this document (tags omitted).
UniProt Q8IXI2: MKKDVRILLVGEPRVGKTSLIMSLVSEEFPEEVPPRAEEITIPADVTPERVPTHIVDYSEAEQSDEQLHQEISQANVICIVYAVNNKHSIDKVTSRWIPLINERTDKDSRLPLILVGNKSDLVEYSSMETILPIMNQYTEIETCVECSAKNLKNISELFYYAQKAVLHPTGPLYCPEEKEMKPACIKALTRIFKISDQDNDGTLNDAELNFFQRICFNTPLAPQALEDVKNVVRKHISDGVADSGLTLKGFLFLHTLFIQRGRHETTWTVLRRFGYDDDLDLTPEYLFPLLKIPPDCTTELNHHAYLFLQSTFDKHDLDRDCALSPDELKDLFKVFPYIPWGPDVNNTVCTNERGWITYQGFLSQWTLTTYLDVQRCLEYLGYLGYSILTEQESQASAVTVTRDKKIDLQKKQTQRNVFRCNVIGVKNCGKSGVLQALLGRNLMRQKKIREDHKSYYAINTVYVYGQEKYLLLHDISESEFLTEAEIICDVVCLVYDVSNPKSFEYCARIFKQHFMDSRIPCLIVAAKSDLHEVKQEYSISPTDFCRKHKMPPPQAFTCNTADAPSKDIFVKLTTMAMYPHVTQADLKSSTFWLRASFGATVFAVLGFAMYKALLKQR
UniProt Q8IXI1: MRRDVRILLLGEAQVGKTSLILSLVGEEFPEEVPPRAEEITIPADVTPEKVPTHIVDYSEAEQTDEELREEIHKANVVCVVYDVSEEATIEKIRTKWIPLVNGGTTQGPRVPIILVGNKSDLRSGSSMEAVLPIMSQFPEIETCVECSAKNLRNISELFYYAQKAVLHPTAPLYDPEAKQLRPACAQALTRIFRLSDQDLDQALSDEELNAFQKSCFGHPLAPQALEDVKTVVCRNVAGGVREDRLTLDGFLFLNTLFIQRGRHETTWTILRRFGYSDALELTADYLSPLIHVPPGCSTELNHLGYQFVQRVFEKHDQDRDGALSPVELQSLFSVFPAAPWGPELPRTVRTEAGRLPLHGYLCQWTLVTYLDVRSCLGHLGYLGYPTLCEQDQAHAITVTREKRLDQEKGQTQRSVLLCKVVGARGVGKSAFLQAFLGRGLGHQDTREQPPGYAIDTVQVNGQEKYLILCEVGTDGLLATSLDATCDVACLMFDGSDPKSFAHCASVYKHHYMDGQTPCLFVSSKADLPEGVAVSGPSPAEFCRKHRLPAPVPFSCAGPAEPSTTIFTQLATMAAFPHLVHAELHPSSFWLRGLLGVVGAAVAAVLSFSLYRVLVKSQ
UniProt Q8JZN7: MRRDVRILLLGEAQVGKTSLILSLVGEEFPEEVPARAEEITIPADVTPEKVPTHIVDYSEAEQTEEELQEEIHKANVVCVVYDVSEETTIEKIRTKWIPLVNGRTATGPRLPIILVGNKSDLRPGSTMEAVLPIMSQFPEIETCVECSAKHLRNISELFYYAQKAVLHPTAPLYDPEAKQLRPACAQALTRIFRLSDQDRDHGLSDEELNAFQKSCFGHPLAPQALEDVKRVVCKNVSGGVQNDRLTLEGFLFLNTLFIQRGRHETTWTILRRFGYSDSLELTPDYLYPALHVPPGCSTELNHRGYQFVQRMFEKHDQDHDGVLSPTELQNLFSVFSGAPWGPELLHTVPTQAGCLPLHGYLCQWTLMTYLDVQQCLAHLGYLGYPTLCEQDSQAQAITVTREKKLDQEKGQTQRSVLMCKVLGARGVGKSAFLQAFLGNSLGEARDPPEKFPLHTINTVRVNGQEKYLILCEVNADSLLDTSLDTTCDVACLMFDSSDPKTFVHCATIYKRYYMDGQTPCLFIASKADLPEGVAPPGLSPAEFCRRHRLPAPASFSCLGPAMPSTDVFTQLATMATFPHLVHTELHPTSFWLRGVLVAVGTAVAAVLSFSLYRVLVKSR

No constants are given. Whether binding was seen depends on the method and setting. In cells and extracts the contact can be indirect. Some entries that bind do so weakly or less than the wild type.

Holding throughout (test): co-IP
In test [1] the target is T1, Sam50 (mouse (endogenous in brain and MEF)) (UniProt Q8BGH2).
T1 sequence: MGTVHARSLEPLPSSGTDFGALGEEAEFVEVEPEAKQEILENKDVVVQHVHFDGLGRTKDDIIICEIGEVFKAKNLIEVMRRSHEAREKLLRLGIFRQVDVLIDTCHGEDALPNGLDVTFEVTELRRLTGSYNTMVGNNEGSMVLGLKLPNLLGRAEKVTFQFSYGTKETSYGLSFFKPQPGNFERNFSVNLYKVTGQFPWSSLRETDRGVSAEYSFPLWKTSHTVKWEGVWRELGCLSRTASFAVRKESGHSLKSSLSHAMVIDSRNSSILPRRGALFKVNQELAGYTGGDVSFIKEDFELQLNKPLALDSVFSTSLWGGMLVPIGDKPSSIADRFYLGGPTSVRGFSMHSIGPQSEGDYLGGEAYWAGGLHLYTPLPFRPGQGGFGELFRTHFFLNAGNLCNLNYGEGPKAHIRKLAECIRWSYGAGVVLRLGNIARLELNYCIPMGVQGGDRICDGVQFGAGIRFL

The next test deals with GFPMiro1, Q8IXI2. The note with it: remark: other sources report otherwise.
A further test addresses GFPMiro2, Q8IXI1. The note with it: remark: other sources report otherwise.
The next test concerns the target GFPMiro1 (UniProt Q8IXI2).
A further test deals with GFPMiro2 (UniProt Q8IXI1).
In test [2] the target is T2, Mic19/CHCHD3 (mouse (endogenous in MEF)) (UniProt Q9CRB9).
T2 sequence: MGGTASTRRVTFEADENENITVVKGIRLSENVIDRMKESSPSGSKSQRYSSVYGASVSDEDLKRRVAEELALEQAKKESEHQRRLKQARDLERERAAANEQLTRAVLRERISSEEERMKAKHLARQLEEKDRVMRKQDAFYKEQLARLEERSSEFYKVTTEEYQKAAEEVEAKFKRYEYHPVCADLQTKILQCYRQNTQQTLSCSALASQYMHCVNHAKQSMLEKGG

The target of test [3] is Miro2 (mouse (endogenous in brain and MEF)) (UniProt Q8JZN7).

B1: Mic19/CHCHD3 (protein, UniProt Q9CRB9 1-227)
chain: T2 sequence
In the case of B1, the binding entry in test [1] was “binds”.

B2: Mtx1, Q13505 1-466 (protein)
chain: MLLGGPPRSPRSGTSPKGPWSSTGHVQFGKSPQTWPRRTRPRSPEPAAPSGVRGSTWTRRRDSPRRAGPTALSRYVGHLWMGRRPPSPEARGPVPRSSAASRARRSLASPGISPGPLTATIGGAVAGGGPRQGRAEAHKEVFPGQRVGKMAAPMELFCWSGGWGLPSVDLDSLAVLTYARFTGAPLKVHKISNPWQSPSGTLPALRTSHGEVISVPHKIITHLRKEKYNADYDLSARQGADTLAFMSLLEEKLLPVLVHTFWIDTKNYVEVTRKWYAEAMPFPLNFFLPGRMQRQYMERLQLLTGEHRPEDEEELEKELYREARECLTLLSQRLGSQKFFFGDAPASLDAFVFSYLALLLQAKLPSGKLQVHLRGLHNLCAYCTHILSLYFPWDGAEVPPQRQTPAGPETEEEPYRRRNQILSVLAGLAAMVGYALLSGIVSIQRATPARAPGTRTLGMAEEDEEE
In the case of B2, the binding entry with GFPMiro1, Q8IXI2 was “no binding”; with GFPMiro2, Q8IXI1, “no binding”.

B3: Sam50 (protein, UniProt Q9Y512 1-469)
chain: MGTVHARSLEPLPSSGPDFGGLGEEAEFVEVEPEAKQEILENKDVVVQHVHFDGLGRTKDDIIICEIGDVFKAKNLIEVMRKSHEAREKLLRLGIFRQVDVLIDTCQGDDALPNGLDVTFEVTELRRLTGSYNTMVGNNEGSMVLGLKLPNLLGRAEKVTFQFSYGTKETSYGLSFFKPRPGNFERNFSVNLYKVTGQFPWSSLRETDRGMSAEYSFPIWKTSHTVKWEGVWRELGCLSRTASFAVRKESGHSLKSSLSHAMVIDSRNSSILPRRGALLKVNQELAGYTGGDVSFIKEDFELQLNKQLIFDSVFSASFWGGMLVPIGDKPSSIADRFYLGGPTSIRGFSMHSIGPQSEGDYLGGEAYWAGGLHLYTPLPFRPGQGGFGELFRTHFFLNAGNLCNLNYGEGPKAHIRKLAECIRWSYGAGIVLRLGNIARLELNYCVPMGVQTGDRICDGVQFGAGIRFL
In the case of B3, the binding entry with GFPMiro1 and with GFPMiro2 was “binds” in each case.

B4: Sam50 (protein, UniProt Q8BGH2 1-469)
chain: T1 sequence
Take B4: the binding result in test [2] and in test [3] was “binds” in each case.
